From PMC7063070
No constants are given. Whether binding was seen depends on the method and setting. Binding seen in cells or lysates may run through a third protein. Here binding means that the protein was enriched with, or labelled near, the bait; the list need not be complete.

Molecular target: integrin αVβ5 (human (endogenous in MDA-MB-435S))
Test: isolation of cross-linked integrin adhesion complexes with mass spectrometry; cells grown 48 h on uncoated dishes, cross-linked with 6 mM DTBP for 5 min, lysed in modified RIPA buffer, cell bodies removed by high-pressure washing, remaining adhesions scraped off and analysed by LC-MS/MS; MDA-MB-435S compared with the integrin αV knock-down clones 2αV and 3αV; no bait

| binding | Binder |
| --- | --- |
| binds | LL5β (pleckstrin homology (PH)-like domain, family B, member 2) (protein, UniProt Q86SQ0 1-1253) MEEHSYIQKELDLQNGSLEEDSVVHSVENDSQNMMESLSPKKYSSSLRFKANGDYSGSYLTLSQPVPAKRSPSPLGTSVRSSPSLAKIQGSKQFSYDGTDKNIPMKPPTPLLNTTSSLSGYPLGRADFDHYTGRDSERALRLSEKPPYSKYSSRHKSHDNVYSLGGLEGRKASGSLLAMWNGSSLSDAGPPPISRSGAASMPSSPKQARKMSIQDSLALQPKLTRHKELASENINLRTRKYSSSSLSHMGAYSRSLPRLYRATENQLTPLSLPPRNSLGNSKRTKLGEKDLPHSVIDNDNYLNFSSLSSGALPYKTSASEGNPYVSSTLSVPASPRVARKMLLASTSSCASDDFDQASYVGTNPSHSLLAGESDRVFATRRNFSCGSVEFDEADLESLRQASGTPQPALRERKSSISSISGRDDLMDYHRRQREERLREQEMERLERQRLETILSLCAEYTKPDSRLSTGTTVEDVQKINKELEKLQLSDEESVFEEALMSPDTRYRCHRKDSLPDADLASCGSLSQSSASFFTPRSTRNDELLSDLTRTPPPPSSTFPKASSESSYLSILPKTPEGISEEQRSQELAAMEETRIVILNNLEELKQKIKDINDQMDESFRELDMECALLDGEQKSETTELMKEKEILDHLNRKIAELEKNIVGEKTKEKVKLDAEREKLERLQELYSEQKTQLDNCPESMREQLQQQLKRDADLLDVESKHFEDLEFQQLEHESRLDEEKENLTQQLLREVAEYQRNIVSRKEKISALKKQANHIVQQAQREQDHFVKEKNNLIMMLQREKENLCNLEKKYSSLSGGKGFPVNPNTLKEGYISVNEINEPCGNSTNLSPSTQFPADADAVATEPATAVLASQPQSKEHFRSLEERKKQHKEGLYLSDTLPRKKTTSSISPHFSSATMGRSITPKAHLPLGQSNSCGSVLPPSLAAMAKDSESRRMLRGYNHQQMSEGHRQKSEFYNRTASESNVYLNSFHYPDHSYKDQAFDTLSLDSSDSMETSISACSPDNISSASTSNIARIEEMERLLKQAHAEKTRLLESREREMEAKKRALEEEKRRREILEKRLQEETSQRQKLIEKEVKIRERQRAQARPLTRYLPVRKEDFDLRSHVETAGHNIDTCYHVSITEKTCRGFLIKMGGKIKTWKKRWFVFDRNKRTFSYYADKHETKLKGVIYFQAIEEVYYDHLKNANKSPNPLLTFSVKTHDRIYYMVAPSPEAMRIWMDVIVTGAEGYTHFLL |
| binds | KN motif and ankyrin repeat domain-containing protein 2 (KANK2) (protein, UniProt Q63ZY3 1-851) MAQVLHVPAPFPGTPGPASPPAFPAKDPDPPYSVETPYGYRLDLDFLKYVDDIEKGHTLRRVAVQRRPRLSSLPRGPGSWWTSTESLCSNASGDSRHSAYSYCGRGFYPQYGALETRGGFNPRVERTLLDARRRLEDQAATPTGLGSLTPSAAGSTASLVGVGLPPPTPRSSGLSTPVPPSAGHLAHVREQMAGALRKLRQLEEQVKLIPVLQVKLSVLQEEKRQLTVQLKSQKFLGHPTAGRGRSELCLDLPDPPEDPVALETRSVGTWVRERDLGMPDGEAALAAKVAVLETQLKKALQELQAAQARQADPQPQAWPPPDSPVRVDTVRVVEGPREVEVVASTAAGAPAQRAQSLEPYGTGLRALAMPGRPESPPVFRSQEVVETMCPVPAAATSNVHMVKKISITERSCDGAAGLPEVPAESSSSPPGSEVASLTQPEKSTGRVPTQEPTHREPTRQAASQESEEAGGTGGPPAGVRSIMKRKEEVADPTAHRRSLQFVGVNGGYESSSEDSSTAENISDNDSTENEAPEPRERVPSVAEAPQLRPAGTAAAKTSRQECQLSRESQHIPTAEGASGSNTEEEIRMELSPDLISACLALEKYLDNPNALTERELKVAYTTVLQEWLRLACRSDAHPELVRRHLVTFRAMSARLLDYVVNIADSNGNTALHYSVSHANFPVVQQLLDSGVCKVDKQNRAGYSPIMLTALATLKTQDDIETVLQLFRLGNINAKASQAGQTALMLAVSHGRVDVVKALLACEADVNVQDDDGSTALMCACEHGHKEIAGLLLAVPSCDISLTDRDGSTALMVALDAGQSEIASMLYSRMNIKCSFAPMSDDESPTSSSAEE |
